Measurements published in PubChem BioAssay AID445 (National Center for Advancing Translational Sciences (NCATS), 2006).
This is one part of the list. Further columns of the screen follow, without active or inactive calls. The list favours compounds with an active or inconclusive main result. Words in brackets tell the shape of the fitted curve; partial curves, single points and poor fits give uncertain potencies.

Test: IkB Signaling
Details: ABC-DLBCL IkBa-CBG/CBR dual luciferase ratio (green luciferase fused to IkBa over red control in OCI-Ly3 lymphoma cells), 4 h
Summary of the method: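 Curves were fitted separately to fusion (green), unfused (red) and ratio luminescence, then classed by r2, magnitude and activity. Cells: OCI-Ly3, 4 h compound plus doxycycline at 37C; 10 uM MG-132 defined full response.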

[1] = measured here: control luc red channel unless noted
[2] = measured here: IkB-luc green channel
[3] = measured here: control luc red channel

## CCC1CCCCN1S(=O)(=O)c1ccc(C(=O)Nc2sc3c(c2C(N)=O)CCC3)cc1 (stereo not given)
[1]
  AC50: 25.1 µM [falling, partial curve]

## CC(C)(C)OC(=O)N1CCC(c2c(C(=O)N3CCN(c4ccccn4)CC3)cnn2-c2ccccc2)CC1
[1]
  AC50: 25.1 µM [falling, single point]

## COc1ccc(-c2nc(C)c(CCNC(=O)c3cccs3)s2)cc1OC
[1]
  AC50: 0.794 µM [rising, partial curve]

## Cc1ccc(OCC(=O)NCC2(N(C)C)CCCCC2)cc1C
[1]
  AC50: 31.6 µM [falling, single point]

## COc1ccccc1N1CCN(CC(=O)Nc2ccc(C)c(F)c2)CC1
[1]
  AC50: 12.6 µM [falling, partial curve]

## CCCOc1ccc(C(=O)NCC2OCCc3ccccc32)cc1 (stereo not given)
[1]
  AC50: 31.6 µM [falling, single point]

## Cc1ccc(CNc2oc(-c3ccc(COc4ccc(C)cc4)o3)nc2C#N)cc1
[1]
  AC50: 0.0501 µM [falling, full curve]

## Cc1ccc(NC(=O)c2c(C)nc3sc(C(=O)Nc4ccc(F)cc4)c(N)c3c2-c2ccc(C)o2)c(C)c1
[1]
  AC50: 5.01 µM [falling, partial curve]

## Cc1ccc2c(c1)-c1c(cnn1CC(=O)N1CCN(c3ccccc3F)CC1)CO2
[1]
  AC50: 25.1 µM [falling, single point]

## Cc1oc2ncn(CC(C)C)c(=O)c2c1C(=O)NCCc1ccccc1
[1]
  AC50: 31.6 µM [falling, partial curve, poor fit]

## Cc1ccc(-c2nc(CNC(=O)Nc3ccccc3)c(C)o2)cc1
[1]
  AC50: 10 µM [falling, partial curve]

## c1ccc(Cn2c(SCc3nc4ccccc4s3)nnc2-c2ccco2)cc1
[1]
  AC50: 15.8 µM [falling, partial curve]

## CCN(CC)C(=O)CSc1nc2ccsc2c(=O)n1Cc1ccccc1Cl
[1]
  AC50: 6.31 µM [falling, partial curve]

## CCS(=O)(=O)n1nc(NCc2cccc(OC)c2)nc1NCc1cccc(OC)c1
[1]
  AC50: 39.8 µM [falling, single point]

## Cc1cc(C)n2c(Nc3ccc(C(C)C)cc3)c(-c3ccsc3)nc2n1
[1]
  AC50: 12.6 µM [falling, partial curve]

## COCCNC(=O)Cn1c(=O)n(CCCCCC(=O)NCc2ccccc2Cl)c(=O)c2sccc21
[1]
  AC50: 10 µM [falling, partial curve]

## Cc1cccc(Cn2c(SCc3ccc(C(=O)NCc4ccccc4F)cc3)nc3ccncc32)c1
[1]
  AC50: 20 µM [falling, partial curve]

## Cc1cc(N2CCN(S(=O)(=O)c3ccc(Cl)cc3)CC2)c2ccccc2n1
[1]
  AC50: 3.16 µM [falling, full curve]

## Cc1c(-c2cccc(NC(=O)Nc3ccc(Cl)cc3)c2)nc2ncccn12
[1]
  AC50: 25.1 µM [falling, partial curve]

## CC1CCCCN1C(=O)Cn1ncc2c3ccccc3n(Cc3ccccc3F)c2c1=O (stereo not given)
[1]
  AC50: 15.8 µM [falling, partial curve]

## COc1ccc(CN(C(=O)c2cc3ccccc3oc2=O)C2CCS(=O)(=O)C2)cc1OC (stereo not given)
[1]
  AC50: 20 µM [falling, partial curve, poor fit]

## Cc1ccc(C(=O)COC(=O)C(Cc2c[nH]c3ccccc23)NC(=O)c2ccc(C(C)(C)C)cc2)cc1 (stereo not given)
[1]
  AC50: 0.794 µM [falling, full curve, poor fit]

## CCOC(=O)C(C)Sc1nc(-c2ccccc2Cl)cc(-c2ccccc2)c1C#N (stereo not given)
[1]
  AC50: 0.631 µM [rising, full curve, poor fit]

## Cc1cc(C)cc(NC(=O)CSc2nc(=O)n(Cc3ccccn3)c3c2CCC3)c1
[1]
  AC50: 15.8 µM [falling, partial curve]

## Cc1cccc(Oc2nc3c(c(=O)n(C)c(=O)n3C)n2Cc2ccccc2)c1C
[1]
  AC50: 15.8 µM [falling, partial curve]

## COc1ccc(-n2cc(-c3ccccc3)c3c(NC4CCCC4)ncnc32)cc1
[1]
  AC50: 39.8 µM [falling, single point]

## CCc1cccc(NC(=O)Cn2c(=O)n(-c3cccc(Cl)c3)c(=O)c3c2c2cc(C)ccc2n3C)c1
[1]
  AC50: 0.01 µM [falling, full curve]

## Cn1c(SCC(=O)N2CCCc3ccccc32)ncc(C(=O)Nc2ccccc2)c1=O
[1]
  AC50: 31.6 µM [falling, single point]

## COCCNC(=O)CSc1nc(-c2ccccc2)[nH]c1-c1ccc(OC)cc1
[1]
  AC50: 12.6 µM [falling, partial curve]

## CCOc1ccc(NC(=O)C2CCCN(S(=O)(=O)c3c(C)noc3/C=C/N(C)C)C2)cc1 (stereo not given)
[1]
  AC50: 31.6 µM [falling, single point]

## CCOC(=O)C1=C(CN2CCN(c3ccc(OC)cc3)CC2)NC(=O)NC1c1ccc(Cl)cc1 (stereo not given)
[1]
  AC50: 15.8 µM [falling, single point]

## Cc1cc(CN2CCN(c3cccc(C)c3C)CC2)cs1
[1]
  AC50: 12.6 µM [falling, single point]

## Fc1ccc2[nH]c(-c3cccs3)cc2c1
[1]
  AC50: 0.631 µM [rising, full curve]

## Cc1ccc(-c2nc(CSc3nncn4c3cc3occc34)c(C)o2)cc1
[1]
  AC50: 39.8 µM [falling, single point]

## Cc1ccc(Cn2cc(C(=O)c3ccc4c(c3)OCO4)c(=O)c3cc(C)ccc32)cc1
[1]
  AC50: 15.8 µM [falling, single point]

## O=C(CSc1nnc(-c2ccccc2)o1)Nc1ccccc1F
[1]
  AC50: 0.316 µM [falling, full curve]

## Cc1ccc(CNC(=O)c2cnn(-c3cccc(C)c3)c2C2CCN(C(=O)OC(C)(C)C)CC2)cc1
[1]
  AC50: 5.01 µM [falling, partial curve]

## CC(=O)c1ccc(NS(=O)(=O)c2ccc(-c3cnc(C4CC4)o3)cc2)cc1
[1]
  AC50: 15.8 µM [falling, partial curve]

## CCC1CCCCN1S(=O)(=O)c1cc(C(=O)Nc2ccc(C)c(F)c2)ccc1F (stereo not given)
[1]
  AC50: 6.31 µM [falling, full curve]

## Cc1ccc(C(=O)N2CCN(c3ccccc3)CC2)cc1S(=O)(=O)N1CCCC1
[1]
  AC50: 10 µM [falling, partial curve]

## CCOC(=O)N1CCN(C(=O)Cn2ncc3c4ccccc4n(Cc4ccc(F)cc4)c3c2=O)CC1
[1]
  AC50: 15.8 µM [falling, partial curve]

## Cc1noc(C)c1S(=O)(=O)NCCc1csc2nc(-c3ccc(Cl)cc3)nn12
[1]
  AC50: 39.8 µM [falling, single point]

## COc1ccccc1-c1nnc(C2CCN(S(=O)(=O)c3ccc(F)c(C)c3)CC2)o1
[1]
  AC50: 15.8 µM [falling, partial curve]

## O=C(COc1ccc(F)cc1)Nc1ccc(Cl)c(-c2nc3ccccc3[nH]2)c1
[1]
  AC50: 12.6 µM [falling, partial curve]

## Cc1nc(-c2ccc(F)cc2)sc1CCNC(=O)c1ccc(C(C)(C)C)cc1
[1]
  AC50: 12.6 µM [falling, partial curve]

## Cc1ccc(Cl)cc1NS(=O)(=O)c1ccc(N2CCCCS2(=O)=O)cc1
[1]
  AC50: 39.8 µM [falling, single point]

## Cc1ccc(NC(=O)Cn2c(=O)n(Cc3ccccc3)c(=O)c3c2c2cc(C)ccc2n3C)cc1
[1]
  AC50: 2.51 µM [rising, partial curve]

## Cc1ccc(C(=O)NCC(c2cccnc2)N2CCc3ccccc3C2)cc1C (stereo not given)
[1]
  AC50: 10 µM [falling, partial curve]

## CCOc1ccc(N2CC(c3nc4ccccc4n3CCOc3ccccc3)CC2=O)cc1 (stereo not given)
[1]
  AC50: 39.8 µM [falling, single point]

## CCc1nc(NCc2ccccn2)c2oc3ccccc3c2n1
[1]
  AC50: 12.6 µM [falling, partial curve]

## Cc1nn(-c2ccccc2)c2sc(C(=O)Nc3cccc(Br)c3)cc12
[1]
  AC50: 39.8 µM [falling, single point]

## CCC1CCCCN1C(=O)c1cc(-c2ccc(Cl)c(Cl)c2)on1 (stereo not given)
[1]
  AC50: 10 µM [falling, partial curve]

## Cc1nnc(Sc2nc3ccccc3o2)c2ccccc12
[2]
  AC50: 31.6 µM [rising, partial curve]
[3]
  AC50: 12.6 µM [falling, partial curve]

## Cc1cc(=O)n2nc(-c3ccccc3)sc2n1
[1]
  AC50: 12.6 µM [falling, partial curve]

## Cc1ccccc1NCc1nc2ccccc2n1CCOc1ccccc1
[1]
  AC50: 25.1 µM [falling, partial curve]

## CCN1C(=O)c2ccccc2Sc2ccc(NC(=O)c3ccc(C#N)cc3)cc21
[1]
  AC50: 25.1 µM [falling, partial curve]

## Cc1ccc2nc(NC(=O)CN3CCOCC3)sc2c1
[1]
  AC50: 15.8 µM [falling, partial curve]

## Cc1nc2sc(C(c3cccs3)N3CCN(c4ccccc4)CC3)c(O)n2n1 (stereo not given)
[2]
  AC50: 12.6 µM [rising, partial curve]
[3]
  AC50: 10 µM [falling, partial curve]

## COc1ccc(C(=O)Nc2nc3c(s2)Cc2cc(OC)ccc2-3)cc1
[1]
  AC50: 3.98 µM [falling, partial curve]

## COc1ccc(NC(=O)CSc2oc(-c3ccco3)nc2S(=O)(=O)c2ccccc2)c(OC)c1
[1]
  AC50: 15.8 µM [falling, partial curve]

## CCOC(=O)CSc1nc2c(sc3ccccc32)c(=O)n1Cc1ccc(OC)cc1
[1]
  AC50: 0.2 µM [rising, full curve, poor fit]

## Nc1c(C(=O)c2ccccc2)sc(Nc2ccc(Cl)c(Cl)c2)c1C(=O)Nc1ccccc1
[1]
  AC50: 2 µM [falling, full curve]

## Cc1ccc2c(c1)N(C(=O)N1CCC(C(=O)NCc3ccccc3F)CC1)CC(C)O2 (stereo not given)
[1]
  AC50: 0.794 µM [rising, full curve]
